Assay [1] has as its target T1, MBP-BIM1 (recombinant full-length) (Arabidopsis) (UniProt Q9LEZ3).
T1 sequence: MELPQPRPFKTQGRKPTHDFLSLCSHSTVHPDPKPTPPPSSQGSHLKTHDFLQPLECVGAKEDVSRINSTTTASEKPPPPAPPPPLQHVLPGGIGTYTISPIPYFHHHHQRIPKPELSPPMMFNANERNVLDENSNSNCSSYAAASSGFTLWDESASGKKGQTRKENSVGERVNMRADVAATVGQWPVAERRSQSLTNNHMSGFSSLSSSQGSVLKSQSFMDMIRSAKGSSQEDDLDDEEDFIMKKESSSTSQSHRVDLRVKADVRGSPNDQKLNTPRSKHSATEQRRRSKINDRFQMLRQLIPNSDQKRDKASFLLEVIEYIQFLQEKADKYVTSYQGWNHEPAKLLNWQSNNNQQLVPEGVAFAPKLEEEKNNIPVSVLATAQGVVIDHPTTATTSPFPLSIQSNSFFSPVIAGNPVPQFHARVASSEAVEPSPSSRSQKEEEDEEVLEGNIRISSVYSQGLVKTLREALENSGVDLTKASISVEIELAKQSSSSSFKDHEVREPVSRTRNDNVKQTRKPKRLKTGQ
The assay can be described thus: pull-down.

Assay [2] addresses HaRxL106 full length (HaRxL106-FL), pDEST32 bait fusion (Hyaloperonospora arabidopsidis). Kind of assay: two-hybrid.

This passage reports binding results from article doi:10.1101/2024.09.09.612066.

Results are given in words; binding and its absence hold for the method and conditions named. A result given as binding can be weak or reduced; the word gives no strength. Tags and fused reporters may be left off the sequences shown.

For “HIS-HaRxL106 (recombinant full-length) (Hyaloperonospora arabidopsidis)”, in assay [1], the binding result is on record as “binds”.

B1: N-terminal domain of BIM1 (amino acids 1 to 278), pDEST22 prey fusion (domain or fragment, UniProt Q9LEZ3 1-278)
chain: MELPQPRPFKTQGRKPTHDFLSLCSHSTVHPDPKPTPPPSSQGSHLKTHDFLQPLECVGAKEDVSRINSTTTASEKPPPPAPPPPLQHVLPGGIGTYTISPIPYFHHHHQRIPKPELSPPMMFNANERNVLDENSNSNCSSYAAASSGFTLWDESASGKKGQTRKENSVGERVNMRADVAATVGQWPVAERRSQSLTNNHMSGFSSLSSSQGSVLKSQSFMDMIRSAKGSSQEDDLDDEEDFIMKKESSSTSQSHRVDLRVKADVRGSPNDQKLNTPR
For the molecule B1, in assay [2], the binding result was “binds”.
